Measurements reported in PubChem BioAssay AID504774 (Drosophila RNAi Screening Center, 2011)

Test: 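Fly genes whose loss alters survival after alkylation damage to DNA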 (primary screen)
Cell system: Drosophila Kc167 cells
Knock-down reagent: long dsRNA against Drosophila genes, about 0.25 µg dsRNA per well
Duration: about 6 days: 3 days knock-down, then 3 days with or without MMS
Treatment: methyl methanesulphonate 0.004% (w/v) for 3 days after knock-down
Measured: 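Viability in wells given MMS, read as ATP luminescence, normalised by quantiles plate by plate and averaged across replicates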
Direction: mean viability with MMS and viability with MMS: higher = more surviving cells after MMS
In all, the deposit lists about 23,000 reagents; shown is a random part of those with a known target gene and a result. 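Values are quantile-normalised luminescence on an arbitrary scale; higher means more cells surviving MMS.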 Names joined by + are all predicted targets of the reagent.

predicted target | amplicon | mean viability with MMS | viability with MMS, replicate 1 | viability with MMS, replicate 2
CG8858 | DRSC07290 | 3.58e6 | 3.86e6 | 3.70e6
CG30187 | DRSC22461 | 3.56e6 | 4.10e6 | 3.95e6
pre-mod(mdg4)-Z + mod(mdg4) + pre-mod(mdg4)-T | DRSC13477 | 3.65e6 | 4.08e6 | 4.15e6
pre-mod(mdg4)-Z + mod(mdg4) + pre-mod(mdg4)-T | DRSC17001 | 3.46e6 | 4.07e6 | 3.79e6
CG9689 | DRSC18440 | 3.57e6 | 4.00e6 | 4.10e6
CG10073 | DRSC05961 | 3.55e6 | 4.04e6 | 4.00e6
CG5639 | DRSC15851 | 3.48e6 | 4.01e6 | 3.83e6
Sbat | DRSC00160 | 3.46e6 | 3.91e6 | 3.97e6
CG10993 | DRSC19362 | 3.58e6 | 4.06e6 | 4.05e6

Copied from the entries so far (2 entries):
predicted target | amplicon | mean viability with MMS | viability with MMS, replicate 1 | viability with MMS, replicate 2
CG10073 | DRSC05961 | 3.55e6 | 4.04e6 | 4.00e6
CG5639 | DRSC15851 | 3.48e6 | 4.01e6 | 3.83e6

Further entries follow.
predicted target | amplicon | mean viability with MMS | viability with MMS, replicate 1 | viability with MMS, replicate 2
Shal | DRSC09625 | 3.46e6 | 3.91e6 | 3.96e6
Shal | DRSC11283 | 3.56e6 | 3.93e6 | 4.13e6
E(spl)mbeta-HLH | DRSC16697 | 3.71e6 | 4.11e6 | 4.26e6
Idgf2 | DRSC03350 | 3.60e6 | 4.11e6 | 4.08e6
CG8476 | DRSC16426 | 3.70e6 | 4.23e6 | 4.19e6
CG14234 | DRSC19317 | 3.41e6 | 3.94e6 | 3.85e6
CG14234 | DRSC19589 | 3.53e6 | 4.05e6 | 3.97e6
Cap-D3 + tomb | DRSC02347 | 3.57e6 | 4.09e6 | 4.00e6
CG5693 | DRSC02878 | 3.50e6 | 3.96e6 | 4.00e6
CG15308 | DRSC17995 | 3.60e6 | 4.01e6 | 4.13e6
gskt | DRSC14056 | 3.81e6 | 4.33e6 | 4.14e6
Tpc2 | DRSC04322 | 3.37e6 | 3.75e6 | 3.81e6
CG40485 | DRSC20624 | 3.44e6 | 3.90e6 | 3.92e6
RpS20 | DRSC16836 | 3.66e6 | 3.60e6 | 4.71e6
qkr58E-1 | DRSC04709 | 3.49e6 | 3.95e6 | 3.72e6
CG4291 | DRSC00650 | 3.51e6 | 3.77e6 | 4.15e6
Ag5r2 | DRSC19328 | 3.53e6 | 4.03e6 | 4.00e6
CG6961 + CG18259 | DRSC19799 | 3.74e6 | 4.23e6 | 4.14e6
CG6961 + CG18259 | DRSC20019 | 3.74e6 | 4.32e6 | 4.21e6
